Test results as given in paper doi:10.1101/2025.04.25.650293.
No constants are given. Whether binding was seen depends on the method and setting. In cells and extracts the contact can be indirect. A result given as binding can be weak or reduced; the word gives no strength.

Key:
[1] = target: T1, DLAT (dihydrolipoamide S-acetyltransferase, the PDC E2 subunit) (human (endogenous in 143B)) (UniProt P10515); assay: co-IP
T1 sequence: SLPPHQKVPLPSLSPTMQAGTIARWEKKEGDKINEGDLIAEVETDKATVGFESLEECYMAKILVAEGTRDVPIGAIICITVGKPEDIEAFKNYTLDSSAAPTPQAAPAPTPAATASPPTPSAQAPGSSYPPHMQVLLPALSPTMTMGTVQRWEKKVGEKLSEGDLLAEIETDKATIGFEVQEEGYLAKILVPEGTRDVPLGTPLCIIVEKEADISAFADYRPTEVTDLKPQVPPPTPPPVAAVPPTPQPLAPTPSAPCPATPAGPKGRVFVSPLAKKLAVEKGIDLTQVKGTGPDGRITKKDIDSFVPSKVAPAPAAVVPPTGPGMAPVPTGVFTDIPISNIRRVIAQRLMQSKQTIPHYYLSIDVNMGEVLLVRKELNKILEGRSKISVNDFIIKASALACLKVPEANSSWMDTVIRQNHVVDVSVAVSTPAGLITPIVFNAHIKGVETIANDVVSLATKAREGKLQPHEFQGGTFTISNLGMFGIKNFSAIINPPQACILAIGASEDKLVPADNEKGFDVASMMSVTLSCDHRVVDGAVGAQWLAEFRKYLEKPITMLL

[2] = target: T2, PDHX (human (endogenous in 143B)) (UniProt O00330); assay: co-IP
T2 sequence: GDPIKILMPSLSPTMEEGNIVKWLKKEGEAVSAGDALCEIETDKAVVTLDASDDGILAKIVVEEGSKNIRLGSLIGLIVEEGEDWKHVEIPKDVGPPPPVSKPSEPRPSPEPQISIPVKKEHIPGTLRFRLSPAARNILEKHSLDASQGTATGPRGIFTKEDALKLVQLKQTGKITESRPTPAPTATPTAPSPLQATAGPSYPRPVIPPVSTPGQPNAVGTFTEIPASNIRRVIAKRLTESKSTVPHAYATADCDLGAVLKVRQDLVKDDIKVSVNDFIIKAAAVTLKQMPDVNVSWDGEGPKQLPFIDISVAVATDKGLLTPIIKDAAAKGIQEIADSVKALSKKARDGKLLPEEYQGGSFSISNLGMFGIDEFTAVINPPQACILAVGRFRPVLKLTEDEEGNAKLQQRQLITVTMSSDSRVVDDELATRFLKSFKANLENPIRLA

binding [1]	binding [2]	Substance
no binding	no binding	HA-ELMSAN1 1-330aa truncation (domain or fragment)
no binding	no binding	HA-ELMSAN1 1-720aa truncation (domain or fragment)
binds	binds	HA-ELMSAN1 1-879aa truncation (domain or fragment)
binds	binds	HA-tagged full-length (1-1099aa) ELMSAN1
